Data on one molecule can be found in PMC11753375.

The target of the assay is endogenous USP5 in HL-1 CMs (mouse (endogenous in HL-1)). Put plainly: co-IP; endogenous proteins of HL-1 cardiomyocytes; Pierce Classic Magnetic IP/Co-IP Kit with anti-USP5 or IgG; immunoblot. (In general: A western blot detects proteins with antibodies after separation by electrophoresis.)

No constants are given. Whether binding was seen depends on the method and setting. Binding seen in cells or lysates may run through a third protein. Binding can be weak; no strength is given.

B1: endogenous HDAC6 in HL-1 CMs (enzyme, UniProt Q9Z2V5 1-1149)
chain: MTSTGQDSSTRQRKSRHNPQSPLQESSATLKRGGKKCAVPHSSPNLAEVKKKGKMKKLSQPAEEDLVVGLQGLDLNPETRVPVGTGLVFDEQLNDFHCLWDDSFPESPERLHAIREQLILEGLLGRCVSFQARFAEKEELMLVHSLEYIDLMETTQYMNEGELRVLAETYDSVYLHPNSYSCACLATGSVLRLVDALMGAEIRNGMAVIRPPGHHAQHNLMDGYCMFNHLAVAARYAQKKHRIQRVLIVDWDVHHGQGTQFIFDQDPSVLYFSIHRYEHGRFWPHLKASNWSTIGFGQGQGYTINVPWNQTGMRDADYIAAFLHILLPVASEFQPQLVLVAAGFDALHGDPKGEMAATPAGFAHLTHLLMGLAGGKLILSLEGGYNLRALAKGVSASLHTLLGDPCPMLESCVVPCASAQTSIYCTLEALEPFWEVLERSVETQEEDEVEEAVLEEEEEEGGWEATALPMDTWPLLQNRTGLVYDEKMMSHCNLWDNHHPETPQRILRIMCHLEEVGLAARCLILPARPALDSELLTCHSAEYVEHLRTTEKMKTRDLHREGANFDSIYICPSTFACAKLATGAACRLVEAVLSGEVLNGIAVVRPPGHHAEPNAACGFCFFNSVAVAARHAQIIAGRALRILIVDWDVHHGNGTQHIFEDDPSVLYVSLHRYDRGTFFPMGDEGASSQVGRDAGIGFTVNVPWNGPRMGDADYLAAWHRLVLPIAYEFNPELVLISAGFDAAQGDPLGGCQVTPEGYAHLTHLLMGLAGGRIILILEGGYNLASISESMAACTHSLLGDPPPQLTLLRPPQSGALVSISEVIQVHRKYWRSLRLMKMEDKEECSSSRLVIKKLPPTASPVSAKEMTTPKGKVPEESVRKTIAALPGKESTLGQAKSKMAKAVLAQGQSSEQAAKGTTLDLATSKETVGGATTDLWASAAAPENFPNQTTSVEALGETEPTPPASHTNKQTTGASPLQGVTAQQSLQLGVLSTLELSREAEEAHDSEEGLLGEAAGGQDMNSLMLTQGFGDFNTQDVFYAVTPLSWCPHLMAVCPIPAAGLDVSQPCKTCGTVQENWVCLTCYQVYCSRYVNAHMVCHHEASEHPLVLSCVDLSTWCYVCQAYVHHEDLQDVKNAAHQNKFGEDMPHSH
For B1, the binding result was “binds”.
